Assay results as given in patent publication US20190194322A1.
Results are given in words; binding and its absence hold for the method and conditions named. Binding seen in cells or lysates may run through a third protein. Some results given as binding are weak or reduced against the parent protein; the word gives no strength. Sequences can lack the tags named with a protein.

What was measured:
[1] = target: T1, human VISTA, endogenous, membrane bound (PBMCs, anti-CD3 activated T cells) (human (homo sapiens)), Q9H7M9; experiment: pull-down from PBMC lysate on streptavidin beads, immunoblot with anti-human VISTA (FIG. 2); conditions: remark: other sources report otherwise
[2] = target: T1, human VISTA, endogenous, membrane bound …; experiment: co-immunoprecipitation (FIG. 2 legend); conditions: remark: other sources report otherwise

B1: VSIG3 His-fusion, Q5DX21 23-241 (ligand, human, UniProt Q5DX21 23-241, looked up, not shown: small tags and cut ends)
chain: LEVSESPGSIQVARGQPAVLPCTFTTSAALINLNVIWMVTPLSNANQPEQVILYQGGQMFDGAPRFHGRVGFTGTMPATNVSIFINNTQLSDTGTYQCLVNNLPDIGGRNIGVTGLTVLVPPSAPHCQIQGSQDIGSDVILLCSSEEGIPRPTYLWEKLDNTLKLPPTATQDQVQGTVTIRNISALSSGLYQCVASNAIGTSTCLLDLQVISPQPRNIG
modifications: here or on the partner: biotinylated (in the co-immunoprecipitation of FIG. 2)
In the case of B1, the binding [1] is reported as “binds” and the binding [2] is reported as “binds”.
